Some of the results follow.
Assays:
Test in all cases: log2 fold change, soluble protein after heating vs DMSO (PISA); higher = thermal stabilisation; K562 lysate, 10 uM; active = over 0.2 and 3.5 SD of the protein, either way, in both replicates (recomputed)
[1] = compound: C1=CC=C(C=C1)[C@H](COC2=CC3=C(C=C2)NC(=O)N3)NC(=O)C4=CC=CN(C4=O)CC5=CC(=C(C=C5)F)F
Outline: (§1)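 Soluble protein was defined as the supernatant remaining after 21,000xg for 90 min, following pooling of heated aliquots and adjustment to 0.5% NP-40 at 4°C. Before that, crude K562 extract at 1 mg/mL protein in PBS pH 7.4 with 1 mM MgCl2 was treated with 10 μM compound for 30 min and heated for 3 min across 48°C-58°C. Quantification used TMTpro 16plex LC-MS/MS with channel sums equalised, and values are log-two fold changes in thermal stability relative to solvent controls from duplicates.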

Sequences of proteins named here, by UniProt entry; tags and fusion partners are left off. A change or cut given only in a name is not applied to a line headed by its entry.
UniProt Q93045: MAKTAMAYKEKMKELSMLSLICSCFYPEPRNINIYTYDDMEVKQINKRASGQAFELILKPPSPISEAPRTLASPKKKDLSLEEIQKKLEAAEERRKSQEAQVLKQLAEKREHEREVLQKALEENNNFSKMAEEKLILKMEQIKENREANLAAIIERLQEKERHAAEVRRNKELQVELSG
UniProt Q15572: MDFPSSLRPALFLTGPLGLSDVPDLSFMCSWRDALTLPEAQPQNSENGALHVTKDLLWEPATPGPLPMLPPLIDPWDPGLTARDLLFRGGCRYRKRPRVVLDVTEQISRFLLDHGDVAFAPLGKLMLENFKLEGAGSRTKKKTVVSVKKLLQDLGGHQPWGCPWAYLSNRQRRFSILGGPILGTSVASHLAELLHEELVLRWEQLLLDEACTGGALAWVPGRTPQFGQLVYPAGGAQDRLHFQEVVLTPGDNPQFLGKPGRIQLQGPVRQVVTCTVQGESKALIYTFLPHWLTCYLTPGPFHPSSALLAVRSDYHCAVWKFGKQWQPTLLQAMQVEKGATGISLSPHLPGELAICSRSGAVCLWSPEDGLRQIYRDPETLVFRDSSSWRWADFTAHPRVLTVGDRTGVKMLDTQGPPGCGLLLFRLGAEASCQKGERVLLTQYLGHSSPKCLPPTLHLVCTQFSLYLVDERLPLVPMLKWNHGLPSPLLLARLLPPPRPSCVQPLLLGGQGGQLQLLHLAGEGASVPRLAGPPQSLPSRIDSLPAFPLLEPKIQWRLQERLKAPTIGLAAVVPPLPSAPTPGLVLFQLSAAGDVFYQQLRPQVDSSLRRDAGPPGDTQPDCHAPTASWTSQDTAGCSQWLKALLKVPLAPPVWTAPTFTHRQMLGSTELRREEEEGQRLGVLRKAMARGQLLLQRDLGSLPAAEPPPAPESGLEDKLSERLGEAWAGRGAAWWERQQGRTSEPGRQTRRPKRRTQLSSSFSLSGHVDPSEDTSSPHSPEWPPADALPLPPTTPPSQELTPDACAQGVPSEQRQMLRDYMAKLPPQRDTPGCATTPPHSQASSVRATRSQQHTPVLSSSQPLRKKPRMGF
UniProt O75528: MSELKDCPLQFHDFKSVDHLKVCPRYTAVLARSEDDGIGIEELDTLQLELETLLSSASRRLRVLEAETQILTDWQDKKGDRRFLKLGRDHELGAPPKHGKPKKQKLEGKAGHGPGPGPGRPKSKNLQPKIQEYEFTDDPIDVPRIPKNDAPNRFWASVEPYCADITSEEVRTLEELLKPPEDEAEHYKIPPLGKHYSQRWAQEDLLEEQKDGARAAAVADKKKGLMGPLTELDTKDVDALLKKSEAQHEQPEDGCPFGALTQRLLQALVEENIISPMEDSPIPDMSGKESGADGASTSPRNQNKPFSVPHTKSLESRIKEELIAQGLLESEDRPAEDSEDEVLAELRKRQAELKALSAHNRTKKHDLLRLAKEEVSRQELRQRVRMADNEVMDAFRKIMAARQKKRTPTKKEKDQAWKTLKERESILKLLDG
UniProt O75410: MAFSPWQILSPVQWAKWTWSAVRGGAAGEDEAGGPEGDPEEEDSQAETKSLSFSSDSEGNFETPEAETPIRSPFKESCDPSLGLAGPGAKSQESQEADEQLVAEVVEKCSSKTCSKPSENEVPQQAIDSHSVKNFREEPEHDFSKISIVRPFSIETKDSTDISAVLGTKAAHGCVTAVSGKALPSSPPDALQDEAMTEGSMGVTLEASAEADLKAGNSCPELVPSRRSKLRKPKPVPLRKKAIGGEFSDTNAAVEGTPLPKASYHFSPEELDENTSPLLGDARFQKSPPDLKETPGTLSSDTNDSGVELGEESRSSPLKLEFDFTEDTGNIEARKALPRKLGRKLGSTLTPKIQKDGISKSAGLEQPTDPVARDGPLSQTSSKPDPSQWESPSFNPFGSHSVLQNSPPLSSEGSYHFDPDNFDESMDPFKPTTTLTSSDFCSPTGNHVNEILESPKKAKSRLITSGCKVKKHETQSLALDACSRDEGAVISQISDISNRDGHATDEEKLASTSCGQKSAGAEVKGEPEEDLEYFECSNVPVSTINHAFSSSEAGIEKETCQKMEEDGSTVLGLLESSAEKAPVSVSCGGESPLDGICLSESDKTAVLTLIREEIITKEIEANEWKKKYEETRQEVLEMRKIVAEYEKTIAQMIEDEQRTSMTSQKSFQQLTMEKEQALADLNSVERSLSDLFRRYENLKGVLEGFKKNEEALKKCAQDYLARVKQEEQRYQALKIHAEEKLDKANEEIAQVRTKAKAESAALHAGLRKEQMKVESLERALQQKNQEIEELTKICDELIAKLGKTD
UniProt P50225: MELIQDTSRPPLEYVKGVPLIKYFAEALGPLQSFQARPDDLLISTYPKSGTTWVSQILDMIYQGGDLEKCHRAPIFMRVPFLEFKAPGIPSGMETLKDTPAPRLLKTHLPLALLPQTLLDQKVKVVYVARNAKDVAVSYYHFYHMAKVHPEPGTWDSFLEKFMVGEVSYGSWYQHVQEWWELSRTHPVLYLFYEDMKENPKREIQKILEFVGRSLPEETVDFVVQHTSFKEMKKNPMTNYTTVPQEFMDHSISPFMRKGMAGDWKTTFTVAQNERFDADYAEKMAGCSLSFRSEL
UniProt O75529: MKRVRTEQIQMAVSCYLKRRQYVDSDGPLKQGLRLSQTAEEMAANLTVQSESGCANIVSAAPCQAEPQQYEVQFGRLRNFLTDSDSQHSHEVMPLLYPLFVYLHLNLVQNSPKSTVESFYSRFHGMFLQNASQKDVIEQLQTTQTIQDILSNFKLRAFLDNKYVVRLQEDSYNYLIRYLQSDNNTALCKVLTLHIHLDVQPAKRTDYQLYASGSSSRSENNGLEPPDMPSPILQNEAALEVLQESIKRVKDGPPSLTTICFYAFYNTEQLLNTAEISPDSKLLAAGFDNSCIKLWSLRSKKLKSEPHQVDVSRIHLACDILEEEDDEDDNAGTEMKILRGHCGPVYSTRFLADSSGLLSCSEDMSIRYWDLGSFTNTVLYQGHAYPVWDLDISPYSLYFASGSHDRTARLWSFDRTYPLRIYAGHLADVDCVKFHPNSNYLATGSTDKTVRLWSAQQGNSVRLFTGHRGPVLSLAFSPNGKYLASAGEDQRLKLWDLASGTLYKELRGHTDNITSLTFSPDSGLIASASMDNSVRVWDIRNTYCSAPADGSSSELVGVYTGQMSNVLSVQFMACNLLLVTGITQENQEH
UniProt Q9P2W9: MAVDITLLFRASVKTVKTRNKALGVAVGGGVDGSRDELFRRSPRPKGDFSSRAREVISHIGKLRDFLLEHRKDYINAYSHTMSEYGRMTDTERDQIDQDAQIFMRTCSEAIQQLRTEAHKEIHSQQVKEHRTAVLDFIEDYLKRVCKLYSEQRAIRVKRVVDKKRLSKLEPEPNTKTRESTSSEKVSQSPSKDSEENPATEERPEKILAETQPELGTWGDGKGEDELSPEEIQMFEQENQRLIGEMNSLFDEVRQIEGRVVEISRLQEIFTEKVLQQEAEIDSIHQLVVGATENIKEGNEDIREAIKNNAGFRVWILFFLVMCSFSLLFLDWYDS
UniProt O00506, whole entry, looked up: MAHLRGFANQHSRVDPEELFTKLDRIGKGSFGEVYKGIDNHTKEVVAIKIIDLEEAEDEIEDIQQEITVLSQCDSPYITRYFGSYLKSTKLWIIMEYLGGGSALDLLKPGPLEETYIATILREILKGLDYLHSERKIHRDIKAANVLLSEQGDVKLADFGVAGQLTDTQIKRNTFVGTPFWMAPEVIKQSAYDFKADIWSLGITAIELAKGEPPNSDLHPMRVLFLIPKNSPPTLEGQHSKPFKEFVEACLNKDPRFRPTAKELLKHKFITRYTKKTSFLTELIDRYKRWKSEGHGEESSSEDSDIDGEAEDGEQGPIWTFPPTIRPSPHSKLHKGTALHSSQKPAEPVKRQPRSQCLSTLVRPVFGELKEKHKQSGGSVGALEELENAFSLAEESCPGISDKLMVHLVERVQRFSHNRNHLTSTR
UniProt Q53T94: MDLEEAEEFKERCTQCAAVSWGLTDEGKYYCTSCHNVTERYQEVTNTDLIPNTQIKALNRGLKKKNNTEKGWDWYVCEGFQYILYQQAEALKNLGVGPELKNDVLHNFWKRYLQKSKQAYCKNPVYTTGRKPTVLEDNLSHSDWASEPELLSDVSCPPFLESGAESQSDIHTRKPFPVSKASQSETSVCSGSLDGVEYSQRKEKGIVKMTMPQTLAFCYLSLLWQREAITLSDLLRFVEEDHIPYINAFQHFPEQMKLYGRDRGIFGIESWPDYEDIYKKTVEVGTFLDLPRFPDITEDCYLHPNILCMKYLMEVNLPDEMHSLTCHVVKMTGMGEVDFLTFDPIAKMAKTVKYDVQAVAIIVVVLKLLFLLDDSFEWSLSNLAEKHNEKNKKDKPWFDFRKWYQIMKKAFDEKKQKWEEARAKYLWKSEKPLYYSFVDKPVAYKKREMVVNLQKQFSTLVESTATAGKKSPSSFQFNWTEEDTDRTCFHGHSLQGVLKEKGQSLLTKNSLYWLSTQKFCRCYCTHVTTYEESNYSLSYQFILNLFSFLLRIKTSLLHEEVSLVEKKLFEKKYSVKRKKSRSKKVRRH
UniProt O15260: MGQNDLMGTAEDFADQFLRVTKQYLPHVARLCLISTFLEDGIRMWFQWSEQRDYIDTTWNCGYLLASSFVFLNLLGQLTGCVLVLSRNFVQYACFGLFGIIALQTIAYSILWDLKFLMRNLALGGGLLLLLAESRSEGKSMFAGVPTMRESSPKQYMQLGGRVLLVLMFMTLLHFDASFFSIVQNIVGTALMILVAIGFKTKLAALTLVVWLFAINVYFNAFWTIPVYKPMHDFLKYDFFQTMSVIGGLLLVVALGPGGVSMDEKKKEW
UniProt B4DR80: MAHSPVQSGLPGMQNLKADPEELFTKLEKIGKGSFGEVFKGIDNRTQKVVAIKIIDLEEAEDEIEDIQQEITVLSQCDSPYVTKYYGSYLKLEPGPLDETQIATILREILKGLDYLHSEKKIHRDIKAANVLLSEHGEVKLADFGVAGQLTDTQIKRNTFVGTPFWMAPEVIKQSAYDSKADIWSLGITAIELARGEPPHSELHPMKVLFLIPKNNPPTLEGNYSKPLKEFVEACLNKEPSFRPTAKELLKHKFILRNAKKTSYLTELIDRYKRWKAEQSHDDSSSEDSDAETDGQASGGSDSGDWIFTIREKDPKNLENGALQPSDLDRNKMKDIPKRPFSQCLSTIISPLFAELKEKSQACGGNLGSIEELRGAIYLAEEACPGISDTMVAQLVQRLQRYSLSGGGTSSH
UniProt Q9NRL3: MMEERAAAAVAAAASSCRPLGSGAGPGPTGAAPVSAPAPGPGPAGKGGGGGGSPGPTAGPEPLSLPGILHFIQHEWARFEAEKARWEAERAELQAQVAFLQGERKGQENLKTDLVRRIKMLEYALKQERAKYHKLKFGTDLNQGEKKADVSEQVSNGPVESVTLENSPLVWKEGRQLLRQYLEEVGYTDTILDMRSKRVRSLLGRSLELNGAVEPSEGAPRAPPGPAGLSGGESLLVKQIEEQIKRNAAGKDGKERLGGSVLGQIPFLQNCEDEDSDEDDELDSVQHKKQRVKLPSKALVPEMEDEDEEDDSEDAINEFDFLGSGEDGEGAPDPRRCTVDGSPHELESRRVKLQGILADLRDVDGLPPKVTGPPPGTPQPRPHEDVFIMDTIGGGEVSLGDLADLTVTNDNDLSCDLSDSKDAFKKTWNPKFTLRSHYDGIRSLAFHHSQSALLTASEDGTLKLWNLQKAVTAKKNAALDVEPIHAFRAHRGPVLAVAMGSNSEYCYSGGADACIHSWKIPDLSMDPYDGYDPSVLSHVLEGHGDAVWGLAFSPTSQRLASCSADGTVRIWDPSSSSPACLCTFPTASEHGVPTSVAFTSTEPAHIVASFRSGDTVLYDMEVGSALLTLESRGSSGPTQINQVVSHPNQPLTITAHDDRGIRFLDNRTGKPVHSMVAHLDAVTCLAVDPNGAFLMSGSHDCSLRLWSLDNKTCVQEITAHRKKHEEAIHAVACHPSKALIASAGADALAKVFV
UniProt Q1ZZU3: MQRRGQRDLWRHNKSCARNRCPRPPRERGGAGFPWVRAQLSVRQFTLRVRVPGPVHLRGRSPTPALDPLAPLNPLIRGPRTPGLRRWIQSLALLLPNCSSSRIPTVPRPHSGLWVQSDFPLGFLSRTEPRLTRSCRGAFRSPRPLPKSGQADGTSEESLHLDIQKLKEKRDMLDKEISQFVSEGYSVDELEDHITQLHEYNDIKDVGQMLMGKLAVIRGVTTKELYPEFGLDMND
UniProt Q13190: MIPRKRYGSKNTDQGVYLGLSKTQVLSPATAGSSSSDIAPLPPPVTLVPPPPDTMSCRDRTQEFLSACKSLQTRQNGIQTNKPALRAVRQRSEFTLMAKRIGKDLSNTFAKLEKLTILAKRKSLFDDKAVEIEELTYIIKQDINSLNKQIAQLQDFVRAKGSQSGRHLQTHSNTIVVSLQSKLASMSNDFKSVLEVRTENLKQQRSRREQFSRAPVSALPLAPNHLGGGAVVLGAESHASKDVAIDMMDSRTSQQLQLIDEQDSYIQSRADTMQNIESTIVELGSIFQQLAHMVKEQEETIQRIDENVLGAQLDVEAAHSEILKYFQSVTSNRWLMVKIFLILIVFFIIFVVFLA

[2] = compound: CC1=C(SC2=C1C(=N[C@H](C3=NN=C(N32)C)CC(=O)N)C4=CC=C(C=C4)Cl)C
Outline: as §1

[3] = compound: CC1=C2C(=CC=C1)N=C(N(C2=O)C3=CC=CC=C3C)CN4C=NC5=C(N=CN=C54)N
Outline: as §1

[4] = compound: Cc1sc2c(c1C)C(c1ccc(Cl)cc1)=N[C@@H](CC(=O)OC(C)(C)C)c1nnc(C)n1-2
Outline: as §1

[5] = compound: c1ccc([C@@H]2C[C@H]2NC2CCNCC2)cc1
Outline: as §1

Measured: log2 fold change

STRN3 (UniProt Q13033)
inactive: [1] -0.011 | [2] -0.046 | [3] -0.076 | [4] 0.019 | [5] 0.109

STMN2 isoform 2 (UniProt Q93045)
inactive: [1] -0.057 | [2] -0.026 | [3] -0.058 | [4] 0.04 | [5] -0.029

STT3A (UniProt P46977)
inactive: [1] -0.001 | [2] 0.004 | [3] 0.028 | [4] -0.019 | [5] -0.026

TACO1 (UniProt Q9BSH4)
inactive: [1] 0.002 | [2] 0.058 | [3] 0.024 | [4] -0.023 | [5] 0.019

STRN (UniProt O43815)
inactive: [1] 0.009 | [2] 0.012 | [3] 0.006 | [4] 0.017 | [5] 0.022

TAF1C (UniProt Q15572)
inactive: [1] -0.076 | [2] 0.072 | [3] -0.032 | [4] -0.044 | [5] 0.032

SUPV3L1 (UniProt Q8IYB8)
inactive: [1] -0.025 | [2] 0.017 | [3] 0.028 | [4] 0.03 | [5] 0.011

TAB2 (UniProt Q9NYJ8)
inactive: [1] 0.018 | [2] 0.009 | [3] 0.025 | [4] 0.028 | [5] -0.007

TAF10 (UniProt Q12962)
inactive: [1] 0.014 | [2] -0.035 | [3] -0.079 | [4] 0.041 | [5] 0.045

TADA3 (UniProt O75528)
inactive: [1] 0.043 | [2] 0 | [3] 0.087 | [4] -0.015 | [5] -0.098

SUN2 isoform 2 (UniProt Q9UH99)
inactive: [1] 0.072 | [2] 0.159 | [3] 0.136 | [4] 0.082 | [5] 0.102

STK11 (UniProt Q15831)
inactive: [1] 0.043 | [2] 0.029 | [3] 0.028 | [4] 0.003 | [5] -0.05

STK39 (UniProt Q9UEW8)
inactive: [1] 0.011 | [2] -0.056 | [3] 0.049 | [4] 0 | [5] 0.078

SUGT1 (UniProt Q9Y2Z0)
inactive: [1] 0.044 | [2] -0.014 | [3] -0.037 | [4] -0.007 | [5] 0.077

STXBP5 (UniProt Q5T5C0)
inactive: [1] 0.008 | [2] -0.014 | [3] 0.037 | [4] -0.035 | [5] -0.027

SWAP70 (UniProt Q9UH65)
inactive: [1] 0.058 | [2] -0.016 | [3] -0.035 | [4] 0.011 | [5] -0.081

STX3 (UniProt Q13277)
inactive: [1] 0.039 | [2] -0.021 | [3] 0.02 | [4] -0.109 | [5] -0.01

STXBP1 (UniProt P61764)
inactive: [1] 0.007 | [2] 0.016 | [3] -0.02 | [4] -0.011 | [5] 0.017

SUMO1 (UniProt P63165)
inactive: [1] 0.018 | [2] 0.008 | [3] 0.023 | [4] 0.017 | [5] -0.003

SUPT6H (UniProt Q7KZ85)
inactive: [1] 0.03 | [2] 0.009 | [3] 0.011 | [4] 0.01 | [5] -0.012

TACC1 (UniProt O75410)
inactive: [1] -0.062 | [2] -0.017 | [3] 0.02 | [4] 0.068 | [5] -0.023

SUPT7L (UniProt O94864)
inactive: [1] 0.047 | [2] 0.028 | [3] -0.013 | [4] -0.125 | [5] 0

STX10 (UniProt O60499)
inactive: [1] 0.11 | [2] -0.029 | [3] 0.051 | [4] -0.059 | [5] -0.167

SYNGR2 (UniProt O43760)
inactive: [1] -0.075 | [2] -0.057 | [3] 0.06 | [4] -0.168 | [5] -0.063

SZRD1 (UniProt Q7Z422)
inactive: [1] -0.003 | [2] 0.018 | [3] -0.008 | [4] -0.02 | [5] -0.039

SULT1A1 (UniProt P50225)
inactive: [1] -0.022 | [2] -0.02 | [3] 0 | [4] 0.051 | [5] 0.088

SUGP1 (UniProt Q8IWZ8)
inactive: [1] 0.043 | [2] -0.041 | [3] 0.014 | [4] -0.011 | [5] -0.001

STOML2 (UniProt Q9UJZ1)
inactive: [1] -0.008 | [2] 0.004 | [3] -0.027 | [4] -0.025 | [5] -0.008

TAF5L (UniProt O75529)
inactive: [1] -0.066 | [2] -0.03 | [3] -0.18 | [4] 0.017 | [5] 0.261

STX18 (UniProt Q9P2W9)
inactive: [1] -0.047 | [2] 0.068 | [3] 0.053 | [4] -0.023 | [5] 0.045

STMN1 (UniProt P16949)
inactive: [1] 0.006 | [2] -0.008 | [3] 0.003 | [4] -0.022 | [5] -0.03

STK25 (UniProt O00506)
inactive: [1] -0.05 | [2] 0.035 | [3] -0.062 | [4] 0.053 | [5] -0.048

TAF1B (UniProt Q53T94)
inactive: [1] -0.073 | [2] 0.071 | [3] 0.499 | [4] -0.13 | [5] -0.008

SYNJ1 (UniProt O43426)
inactive: [1] 0.022 | [2] 0.06 | [3] 0.034 | [4] 0.011 | [5] -0.015

SURF6 (UniProt O75683)
inactive: [1] -0.002 | [2] 0.024 | [3] -0.003 | [4] 0.007 | [5] -0.004

SYK (UniProt P43405)
inactive: [1] -0.016 | [2] 0.06 | [3] 0.135 | [4] 0.008 | [5] -0.052

STX12 (UniProt Q86Y82)
inactive: [1] 0.059 | [2] 0 | [3] 0.042 | [4] -0.055 | [5] -0.037

SURF4 (UniProt O15260)
inactive: [1] -0.032 | [2] -0.014 | [3] 0.041 | [4] -0.065 | [5] -0.11

Looked up one by one from the list above, 2 records:
SURF4 (UniProt O15260)
inactive: [1] -0.032 | [2] -0.014 | [3] 0.041 | [4] -0.065 | [5] -0.11

STX12 (UniProt Q86Y82)
inactive: [1] 0.059 | [2] 0 | [3] 0.042 | [4] -0.055 | [5] -0.037

Remaining list, next part.

SUOX (UniProt P51687)
inactive: [1] 0.037 | [2] 0.016 | [3] -0.012 | [4] -0.028 | [5] -0.025

SURF2 (UniProt Q15527)
inactive: [1] -0.013 | [2] 0.054 | [3] -0.054 | [4] 0.056 | [5] -0.032

STK11IP (UniProt Q8N1F8)
inactive: [1] 0.002 | [2] 0.072 | [3] 0.019 | [4] 0.019 | [5] 0.015

STK24 (UniProt B4DR80)
inactive: [1] -0.025 | [2] 0.003 | [3] -0.041 | [4] -0.019 | [5] -0.055

SYVN1 (UniProt Q86TM6)
inactive: [1] -0.034 | [2] -0.075 | [3] 0.022 | [4] -0.034 | [5] 0.051

SYTL4 (UniProt Q96C24)
inactive: [1] -0.021 | [2] 0.174 | [3] 0.047 | [4] 0.041 | [5] 0.215

SUMF2 (UniProt Q8NBJ7)
inactive: [1] 0.021 | [2] -0.056 | [3] 0.035 | [4] -0.04 | [5] -0.042

TAF4B (UniProt Q92750)
inactive: [1] 0.037 | [2] -0.064 | [3] 0.022 | [4] -0.166 | [5] -0.149

STRN4 isoform 3 (UniProt Q9NRL3)
inactive: [1] 0.069 | [2] -0.013 | [3] -0.002 | [4] 0.036 | [5] -0.005

SWI5 (UniProt Q1ZZU3)
inactive: [1] 0.078 | [2] 0.016 | [3] 0.064 | [4] 0.072 | [5] -0.024

SUPT16H (UniProt Q9Y5B9)
inactive: [1] -0.011 | [2] -0.018 | [3] 0.014 | [4] -0.007 | [5] 0.052

STRIP2 (UniProt Q9ULQ0)
inactive: [1] -0.009 | [2] 0.013 | [3] 0.027 | [4] -0.006 | [5] 0

STUB1 (UniProt Q9UNE7)
inactive: [1] -0.04 | [2] 0.036 | [3] -0.006 | [4] 0.035 | [5] 0.02

STX5 (UniProt Q13190)
inactive: [1] -0.04 | [2] 0.036 | [3] -0.024 | [4] 0.018 | [5] -0.001

SYNJ2BP-COX16, A0A087WYV9
inactive: [1] 0.125 | [2] -0.012 | [3] -0.024 | [4] 0.092 | [5] 0.102

2 successive entries out of the list so far, quoted:
STUB1 (UniProt Q9UNE7)
inactive: [1] -0.04 | [2] 0.036 | [3] -0.006 | [4] 0.035 | [5] 0.02

STX5 (UniProt Q13190)
inactive: [1] -0.04 | [2] 0.036 | [3] -0.024 | [4] 0.018 | [5] -0.001
